The supplement of paper PMC8728848
The list shows a part of the results.

Legend:
Experiment in all cases: glycan array binding signal (z-score within array); higher = stronger binding
Details in all cases: glycan notation: IUPAC condensed, linker removed
[1] = target: Gal(b1-3)GlcNAc(b1-2)Man(a1-3)[Gal(b1-3)GlcNAc(b1-2)Man(a1-6)]Man(b1-4)GlcNAc(b1-4)[Fuc(a1-6)]GlcNAc
Summary of the method: (§1)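 Columns mapping to the same glycan were averaged after glycan names were converted to IUPAC-condensed notation. The data come from 3228 arrays in the Consortium for Functional Glycomics database, limited to those with an available protein sequence. Binding is reported as a within-array Z-score averaged across arrays of one protein sequence and across linkers.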

[2] = target: Gal(b1-3)GlcNAc(b1-2)Man(a1-3)[GlcNAc(b1-4)][Gal(b1-3)GlcNAc(b1-2)Man(a1-6)]Man(b1-4)GlcNAc(b1-4)GlcNAc
Summary of the method: as §1

[3] = target: Gal(b1-3)GlcNAc(b1-2)[Gal(b1-3)GlcNAc(b1-6)]Man(a1-6)[Gal(b1-3)GlcNAc(b1-2)Man(a1-3)]Man(b1-4)GlcNAc(b1-4)GlcNAc
Summary of the method: as §1

[4] = target: Gal(b1-3)GlcNAc(b1-3)Gal(b1-3)GlcNAc
Summary of the method: as §1

[5] = target: Gal(b1-3)GlcNAc(b1-3)Gal(b1-4)Glc
Summary of the method: as §1

[6] = target: Gal(b1-3)GlcNAc(b1-3)Gal(b1-4)GlcNAc
Summary of the method: as §1

[7] = target: Gal(b1-3)GlcNAc(b1-3)Gal(b1-4)GlcNAc(b1-2)Man(a1-3)[Gal(b1-3)GlcNAc(b1-3)Gal(b1-4)GlcNAc(b1-2)Man(a1-6)]Man(b1-4)GlcNAc(b1-4)GlcNAc
Summary of the method: as §1

[8] = target: Gal(b1-3)GlcNAc(b1-3)Gal(b1-4)GlcNAc(b1-2)[Gal(b1-3)GlcNAc(b1-3)Gal(b1-4)GlcNAc(b1-6)]Man(a1-6)[Gal(b1-3)GlcNAc(b1-3)Gal(b1-4)GlcNAc(b1-2)Man(a1-3)]Man(b1-4)GlcNAc(b1-4)[Fuc(a1-6)]GlcNAc
Summary of the method: as §1

[9] = target: Gal(b1-3)GlcNAc(b1-3)Gal(b1-4)GlcNAc(b1-3)Gal(b1-4)GlcNAc(b1-2)[Gal(b1-3)GlcNAc(b1-3)Gal(b1-4)GlcNAc(b1-3)Gal(b1-4)GlcNAc(b1-6)]Man(a1-6)[Gal(b1-3)GlcNAc(b1-3)Gal(b1-4)GlcNAc(b1-3)Gal(b1-4)GlcNAc(b1-2)Man(a1-3)]Man(b1-4)GlcNAc(b1-4)[Fuc(a1-6)]GlcNAc
Summary of the method: as §1

[10] = target: Gal(b1-3)GlcNAc(b1-3)Gal(b1-4)GlcNAc(b1-6)[Gal(b1-3)GlcNAc(b1-3)]Gal(b1-4)Glc
Summary of the method: as §1

[11] = target: Gal(b1-3)GlcNAc(b1-3)Gal(b1-4)[Fuc(a1-3)]GlcNAc
Summary of the method: as §1

[12] = target: Gal(b1-3)GlcNAc(b1-3)Gal(b1-4)[Fuc(a1-3)]GlcNAc(b1-6)[Gal(b1-3)GlcNAc(b1-3)]Gal(b1-4)Glc
Summary of the method: as §1

[13] = target: Gal(b1-3)GlcNAc(b1-3)GalNAc
Summary of the method: as §1

[14] = target: Gal(b1-3)GlcNAc(b1-6)Gal(b1-4)GlcNAc
Summary of the method: as §1

[15] = target: Gal(b1-3)GlcNAc(b1-6)GalNAc
Summary of the method: as §1

[16] = target: Gal(b1-3)GlcNAc(b1-6)[Gal(b1-3)]GalNAc
Summary of the method: as §1

Gal(b1-3)GlcNAc6S = target: Gal(b1-3)GlcNAc6S
Summary of the method: as §1

[17] = target: Gal(b1-3)[Fuc(a1-4)]GlcNAc
Summary of the method: as §1

[18] = target: Gal(b1-3)[Fuc(a1-4)]GlcNAc(b1-2)Man
Summary of the method: as §1

[19] = target: Gal(b1-3)[Fuc(a1-4)]GlcNAc(b1-2)Man(a1-3)[Gal(b1-3)[Fuc(a1-4)]GlcNAc(b1-2)Man(a1-6)]Man(b1-4)GlcNAc(b1-4)[Fuc(a1-6)]GlcNAc
Summary of the method: as §1

[20] = target: Gal(b1-3)[Fuc(a1-4)]GlcNAc(b1-3)Gal(b1-3)[Fuc(a1-4)]GlcNAc
Summary of the method: as §1

[21] = target: Gal(b1-3)[Fuc(a1-4)]GlcNAc(b1-3)Gal(b1-4)[Fuc(a1-3)]GlcNAc
Summary of the method: as §1

[22] = target: Gal(b1-3)[Fuc(a1-4)]GlcNAc(b1-6)GalNAc
Summary of the method: as §1

[23] = target: Gal(b1-3)[GlcNAc(b1-6)]GalNAc
Summary of the method: as §1

[24] = target: Gal(b1-3)[Neu5Ac(a2-6)]GalNAc
Summary of the method: as §1

[25] = target: Gal(b1-3)[Neu5Ac(a2-6)]GlcNAc(b1-4)Gal(b1-4)Glc
Summary of the method: as §1

[26] = target: Gal(b1-3)[Neu5Ac(b2-6)]GalNAc
Summary of the method: as §1

Gal(b1-4)Gal = target: Gal(b1-4)Gal
Summary of the method: as §1

[27] = target: Gal(b1-4)GalNAc(a1-3)[Fuc(a1-2)]Gal(b1-4)GlcNAc
Summary of the method: as §1

[28] = target: Gal(b1-4)GalNAc(b1-3)[Fuc(a1-2)]Gal(b1-4)GlcNAc
Summary of the method: as §1

Gal(b1-4)Glc = target: Gal(b1-4)Glc
Summary of the method: as §1

Gal(b1-4)Glc6S = target: Gal(b1-4)Glc6S
Summary of the method: as §1

Gal(b1-4)GlcNAc = target: Gal(b1-4)GlcNAc
Summary of the method: as §1

[29] = target: Gal(b1-4)GlcNAc(a1-6)Gal(b1-4)GlcNAc
Summary of the method: as §1

Gal(b1-4)GlcNAc(b1-2)Man = target: Gal(b1-4)GlcNAc(b1-2)Man
Summary of the method: as §1

[30] = target: Gal(b1-4)GlcNAc(b1-2)Man(a1-3)Man(b1-4)GlcNAc(b1-4)GlcNAc
Summary of the method: as §1

[31] = target: Gal(b1-4)GlcNAc(b1-2)Man(a1-3)[Gal(b1-4)GlcNAc(b1-2)Man(a1-6)]Man(b1-4)GlcNAc(b1-4)GlcNAc
Summary of the method: as §1

[32] = target: Gal(b1-4)GlcNAc(b1-2)Man(a1-3)[Gal(b1-4)GlcNAc(b1-2)Man(a1-6)]Man(b1-4)GlcNAc(b1-4)[Fuc(a1-6)]GlcNAc
Summary of the method: as §1

[33] = target: Gal(b1-4)GlcNAc(b1-2)Man(a1-3)[Gal(b1-4)GlcNAc(b1-2)Man(a1-6)][Gal(b1-4)GlcNAc(b1-4)]Man(b1-4)GlcNAc(b1-4)[Fuc(a1-6)]GlcNAc
Summary of the method: as §1

[34] = target: Gal(b1-4)GlcNAc(b1-2)Man(a1-3)[Gal(b1-4)GlcNAc(b1-2)Man(a1-6)][GlcNAc(b1-4)]Man(b1-4)GlcNAc(b1-4)[Fuc(a1-6)]GlcNAc
Summary of the method: as §1

[35] = target: Gal(b1-4)GlcNAc(b1-2)Man(a1-3)[GlcNAc(b1-2)Man(a1-6)]Man(b1-4)GlcNAc(b1-4)GlcNAc
Summary of the method: as §1

[36] = target: Gal(b1-4)GlcNAc(b1-2)Man(a1-3)[GlcNAc(b1-4)][Gal(b1-4)GlcNAc(b1-2)Man(a1-6)]Man(b1-4)GlcNAc(b1-4)GlcNAc
Summary of the method: as §1

[37] = target: Gal(b1-4)GlcNAc(b1-2)Man(a1-3)[Man(a1-6)]Man(b1-4)GlcNAc(b1-4)GlcNAc
Summary of the method: as §1

[38] = target: Gal(b1-4)GlcNAc(b1-2)Man(a1-6)Man(b1-4)GlcNAc(b1-4)GlcNAc
Summary of the method: as §1

[39] = target: Gal(b1-4)GlcNAc(b1-2)Man(a1-6)[GlcNAc(b1-2)Man(a1-3)]Man(b1-4)GlcNAc(b1-4)GlcNAc
Summary of the method: as §1

B1: SJCP1531 (Schistosoma japonicum) (protein)
chain: MFKVRIINLVNISTVLLLINLLQTKSQVNVEQLVTVLEVNIKAQLKNKTTEVLVEWNPLYQDNSMPEYRKLLDETCKLFLPFVNEKVPPSTYGGECTNANFSEAPQDGSYSRVNAELRLIYKYSDNPQIQTDRLQDDLNDREEFITSESSFVAYNPKFTVKIEKLFIPISESQTTPPPTTAKNDASKKDDDDNGGEDSKAPIDTFAMTASGNKGKKDDDDNGGEDSKAPIDTFAMTASGSKDERSTWTIIGIITLVVLIFVVIGGGITVFVKRC
What does the source list for B1?
glycan array binding signal (z-score) [1]: 1.03; glycan array binding signal (z-score) [2]: 1.55; glycan array binding signal (z-score) [3]: 2.11; glycan array binding signal (z-score) [4]: -0.382; glycan array binding signal (z-score) [5]: -1.1; glycan array binding signal (z-score) [6]: -0.806; glycan array binding signal (z-score) [7]: -0.691; glycan array binding signal (z-score) [8]: 1.35; glycan array binding signal (z-score) [9]: 0.637; glycan array binding signal (z-score) [10]: 1.37; glycan array binding signal (z-score) [11]: 0.726; glycan array binding signal (z-score) [12]: -1.15; glycan array binding signal (z-score) [13]: -1.3; glycan array binding signal (z-score) [14]: -0.48; glycan array binding signal (z-score) [15]: -0.943; glycan array binding signal (z-score) [16]: -0.693; glycan array binding signal (z-score) (Gal(b1-3)GlcNAc6S): -1.17; glycan array binding signal (z-score) [17]: -0.983; glycan array binding signal (z-score) [18]: 1.86; glycan array binding signal (z-score) [19]: 0.563; glycan array binding signal (z-score) [20]: -0.008; glycan array binding signal (z-score) [21]: 0.284; glycan array binding signal (z-score) [22]: -0.809; glycan array binding signal (z-score) [23]: -0.044; glycan array binding signal (z-score) [24]: -0.726; glycan array binding signal (z-score) [25]: -1.38; glycan array binding signal (z-score) [26]: -0.233; glycan array binding signal (z-score) (Gal(b1-4)Gal): -0.573; glycan array binding signal (z-score) [27]: 1.14; glycan array binding signal (z-score) [28]: -0.618; glycan array binding signal (z-score) (Gal(b1-4)Glc): -0.654; glycan array binding signal (z-score) (Gal(b1-4)Glc6S): 1.1; glycan array binding signal (z-score) (Gal(b1-4)GlcNAc): -0.495; glycan array binding signal (z-score) [29]: -0.586; glycan array binding signal (z-score) (Gal(b1-4)GlcNAc(b1-2)Man): 0.588; glycan array binding signal (z-score) [30]: 0.954; glycan array binding signal (z-score) [31]: -0.745; glycan array binding signal (z-score) [32]: -0.521; glycan array binding signal (z-score) [33]: -0.361; glycan array binding signal (z-score) [34]: -0.342; glycan array binding signal (z-score) [35]: -0.771; glycan array binding signal (z-score) [36]: 0.817; glycan array binding signal (z-score) [37]: -0.942; glycan array binding signal (z-score) [38]: 0.976; glycan array binding signal (z-score) [39]: 0.263
